Test results taken from article doi:10.1101/2022.05.24.493272.
No constants are given. Whether binding was seen depends on the method and setting. In cells and extracts the contact can be indirect. Some entries that bind do so weakly or less than the wild type.

Amino acid sequences for entries named in this document (tags omitted).
UniProt P06730: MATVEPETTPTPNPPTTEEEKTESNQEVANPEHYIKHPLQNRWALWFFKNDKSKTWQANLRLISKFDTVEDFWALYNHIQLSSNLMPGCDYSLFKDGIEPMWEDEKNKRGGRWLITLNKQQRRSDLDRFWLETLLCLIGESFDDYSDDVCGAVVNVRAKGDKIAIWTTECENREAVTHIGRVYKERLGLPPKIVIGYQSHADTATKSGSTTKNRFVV

What was measured:
[1] = target: eukaryotic initiation factor eIF4E (human (endogenous in HCT-15 and SNG-M)) (UniProt P06730); experiment: co-IP
[2] = target: eukaryotic initiation factor eIF4E (human (endogenous in HCT-15 and SNG-M)) (UniProt P06730); experiment: pull-down

B1: eIF4E binding protein 2 (4E-BP2) (protein, UniProt Q13542 1-120)
chain: MSSSAGSGHQPSQSRAIPTRTVAISDAAQLPHDYCTTPGGTLFSTTPGGTRIIYDRKFLLDRRNSPMAQTPPCHLPNIPGVTSPGTLIEDSKVEVNNLNNLNNHDRKHAVGDDAQFEMDI
binding [1]: binds
binding [2]: binds
